No constants are given. Whether binding was seen depends on the method and setting. In cells and extracts the contact can be indirect. Binding can be weak; no strength is given. Where a sequence is shown, tags or fusion partners need not be part of it.

This test has as its target T1, MANF N-terminally tagged with a Venus fragment (pre-NV-MANF or pre-CV-MANF) (human) (UniProt P55145).
T1 sequence: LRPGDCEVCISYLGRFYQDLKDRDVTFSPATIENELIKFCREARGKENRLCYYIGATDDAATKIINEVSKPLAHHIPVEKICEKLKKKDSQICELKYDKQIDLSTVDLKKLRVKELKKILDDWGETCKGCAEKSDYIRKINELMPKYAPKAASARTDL
The test is described as follows: split reporter; split Venus BiFC (NV, VN173 and CV, VC155) in co-transfected HEK293 cells, fixed 20 to 24 h after transfection, confocal imaging, ER shown by anti-calreticulin.
Turning to “PGAM1 fused with a Venus fragment (BiFC)”, the binding entry is “binds”.
To “GRP78 fused C-terminally with a Venus fragment (BiFC)” belongs “binds”.
To “IF4A1 fused with a Venus fragment (BiFC)” belongs “no binding”.
“HS105 fused with a Venus fragment (BiFC)”: the binding entry is reported as “no binding”.
Consider KCRB fused with a Venus fragment (BiFC), for which the binding entry is “binds”.
To ENOA fused with a Venus fragment (BiFC) belongs “no binding”; to CH60 fused with a Venus fragment (BiFC), “binds”.
To “PDIA6 fused C-terminally with a Venus fragment (BiFC)” belongs “binds”; to ECHB fused with a Venus fragment (BiFC), “no binding”.

The record behind these values is paper PMC7949057, “The cytoprotective protein MANF promotes neuronal survival independently from its role as a GRP78 cofactor” (The Journal of Biological Chemistry, 2021).
